In doi:10.1101/825828:
No constants are given. Whether binding was seen depends on the method and setting. Binding seen in cells or lysates may run through a third protein. Some results given as binding are weak or reduced against the parent protein; the word gives no strength.

Protein sequences, listed by entry. Tags and fused reporters are not part of them.
UniProt O60238: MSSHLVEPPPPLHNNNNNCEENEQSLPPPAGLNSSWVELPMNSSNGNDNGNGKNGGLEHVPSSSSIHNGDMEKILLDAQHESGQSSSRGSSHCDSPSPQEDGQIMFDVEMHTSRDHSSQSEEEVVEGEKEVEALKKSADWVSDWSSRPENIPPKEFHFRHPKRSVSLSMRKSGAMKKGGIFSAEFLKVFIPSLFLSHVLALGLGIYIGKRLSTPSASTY
UniProt P31946: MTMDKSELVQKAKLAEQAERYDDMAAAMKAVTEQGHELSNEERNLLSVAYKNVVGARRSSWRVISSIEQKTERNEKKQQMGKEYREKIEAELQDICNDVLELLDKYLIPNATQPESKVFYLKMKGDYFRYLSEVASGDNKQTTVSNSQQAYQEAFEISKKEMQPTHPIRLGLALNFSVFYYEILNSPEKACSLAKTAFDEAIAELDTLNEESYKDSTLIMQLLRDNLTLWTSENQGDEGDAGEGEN

Target: Myc-tagged Nix (UniProt O60238)
Test: co-IP

- binding: binds
Substance: HA-tagged 14-3-3ß (from UniProt P31946 1-246)
